Test results as given in patent US20050261273A1, “Substituted urea and carbamate, phenacyl-2-hydroxy-3-diaminoalkane, and benzamide-2-hydroxy-3-diaminoalkane aspartyl-protease inhibitors” (priority 2004, published 2005).

Settings: CF-1 mice, 10 μmol/kg IV tail vein, non-perfused brain, corrected for plasma volume
Protocol: In-life phase: Test compounds were administered to CF-1 (20-30 g) mice at 10 μmol/kg (4 to 7 mg/kg) following IV administration in the tail vein. Two time-points, 5 and 60 min, were collected post dose. Four mice were harvested for heparinized plasma and non-perfused brains at each time-point for a total of 8 mice per compound.
Analytical phase: Samples were extracted and evaporated to dryness, then reconstituted and injected onto a reverse phase chromatographic column while monitoring the effluent with a triple quadrupole mass spectrometer. […] The lower limit of quantitation (LOQ) is generally 1 ng/mL and 0.5 ng/g for the plasma and brain respectively. Data was reported in micromolar (μM) units. Brain levels were corrected for plasma volumes (16 μL/g).

**Q.** With `CN1C(=O)CN=C(c2ccccc2)c2cc(Cl)ccc21` [Diazepam] as the molecule, how does the “concentration level in the brain at 5 min” value (5 min post dose) read?
**A.** 5481 nM

**Q.** What about the “concentration level in the brain at 60 min” value (60 min post dose) of the same molecule?
**A.** 176 nM
